# Experimental data as given in article PMC7819943, “Rice protein-binding microarrays: a tool to detect cis-acting elements near promoter regions in rice”.
# Protein sequences, listed by entry. Tags and fused reporters are not part of them.
# UniProt Q0JBA9, entry or part of it: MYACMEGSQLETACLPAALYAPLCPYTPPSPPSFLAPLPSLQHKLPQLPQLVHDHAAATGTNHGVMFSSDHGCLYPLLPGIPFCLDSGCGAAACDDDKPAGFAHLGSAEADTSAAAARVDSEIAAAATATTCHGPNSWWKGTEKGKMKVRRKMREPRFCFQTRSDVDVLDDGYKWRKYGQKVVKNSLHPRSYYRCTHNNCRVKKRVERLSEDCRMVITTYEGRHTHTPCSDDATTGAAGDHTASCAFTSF
# Some of the results follow.
# Biological target: OsWRKY34 (Oryza sativa, UniProt Q0JBA9 1-250)
# Experiment: protein-binding microarray (RPBM); PBS, 2% BSA, 51.3 ng/ul salmon testes DNA, 50 uM zinc acetate, 200 nM TF, 25 C, 1 h; high values mean tight binding
# Details: protein: recombinant; tags: N-terminal polyhistidine and DsRed monomer fusion (pET32a); label: CyDye5-dUTP incorporated in the synthesized complementary strand; 3' TTTTT single-stranded linker to array surface; dsDNA, one strand shown
# Method in brief: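 For the binding signal, per-feature fluorescence intensity was read in arbitrary units on an Axon 4000B scanner. Before scanning, a 2% BSA-blocked custom Agilent array made double-stranded with Cy5-dUTP was washed after 1 h at 25 °C with 200 nM protein and 50 µM zinc acetate. The proteins were Ni–NTA-purified transcription factors with N-terminal polyhistidine and DsRed fusions, expressed in E. coli BL21-CodonPlus.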
row,Sequence,binding signal
1,ACCTGTCTGTATTTTTGTACACTCTGCTGCTTGCCCTTCTCGGAGTCACCTAGTGCAG,10500 fluorescence intensity (a.u.)
2,AGCTGTGAGTTTCTGTGTCCAATGTTTGACCGTCAATCTTCGGAGTCACCTAGTGCAG,12100 fluorescence intensity (a.u.)
3,TTTTTTTTTTATCCGTCCCTACTCCTCGCACCTTAAAAATCGGAGTCACCTAGTGCAG,10300 fluorescence intensity (a.u.)
4,CCCACACCCTTCTTTTGTCGCGCTGATCCCCAGACGCCGGCGGAGTCACCTAGTGCAG,12900 fluorescence intensity (a.u.)
5,TTTCCAACCAACTGATCTTTCATTCCATCATTCTTTCTTTCGGAGTCACCTAGTGCAG,9870 fluorescence intensity (a.u.)
6,GTTTGACTTTTTTACTAGTCAAACTTATTTAAGTTTGACCCGGAGTCACCTAGTGCAG,17500 fluorescence intensity (a.u.)
7,GTTGGGTCTTGGCTTTCTCCCCTCTCTCTCTCCCTCTTGTCGGAGTCACCTAGTGCAG,8580 fluorescence intensity (a.u.)
8,AAGGGTTGGGCATCATTGCAGCATAACTAAACACACCGTACGGAGTCACCTAGTGCAG,10200 fluorescence intensity (a.u.)
9,AAGTTTAGGGTGAGCAATGTCTGGTTTTCGGGTTCAGGGGCGGAGTCACCTAGTGCAG,13300 fluorescence intensity (a.u.)
10,GTTTTTGTTTGTTGTTGATGATATGATCCAGCACTGATGTCGGAGTCACCTAGTGCAG,8040 fluorescence intensity (a.u.)
11,CACTACCTCCAACTAACTAACCACCTTTTCTCTCCACTGCCGGAGTCACCTAGTGCAG,8250 fluorescence intensity (a.u.)
12,TCACCTGCCTGCCCCTGCGCTGCGCCGGCTGCGCCTTCTGCGGAGTCACCTAGTGCAG,10800 fluorescence intensity (a.u.)
13,GCGGTAGGGTTCAGTACTCTATGCTCAAGTCCTCTTCCTACGGAGTCACCTAGTGCAG,8670 fluorescence intensity (a.u.)
14,CACCATACTAAGTACTAGAGTACCTAACTTCAGTATCTTCCGGAGTCACCTAGTGCAG,9110 fluorescence intensity (a.u.)
15,GTACTTTGTTCGTTTCAAAACGATACTTTACCTAATTTTACGGAGTCACCTAGTGCAG,8590 fluorescence intensity (a.u.)
16,CATCCACGCAACCCTGCAGCAACGGTCACTAAACCAATCCCGGAGTCACCTAGTGCAG,8270 fluorescence intensity (a.u.)
17,TCACCGTTTAGTCCTTGATGCACCACCTTCTCCGACCTCTCGGAGTCACCTAGTGCAG,13000 fluorescence intensity (a.u.)
18,TCCATCTTCTTCTTGCCACTCTGAATTCAGCTTCAGGAGCCGGAGTCACCTAGTGCAG,9250 fluorescence intensity (a.u.)
19,AAAAAAACCCTTTGCAACACTGCTCCACTCCATCACTAGTCGGAGTCACCTAGTGCAG,8630 fluorescence intensity (a.u.)
20,AATGTCGGTTTCATTGCAGTTTATTCTTTGTCGTTGGCTTCGGAGTCACCTAGTGCAG,9760 fluorescence intensity (a.u.)
21,CCCTTTCATCGCGTGGCTTTCCCACACATCGCTGTGTCTCCGGAGTCACCTAGTGCAG,12300 fluorescence intensity (a.u.)

# Reprinted at random: 2 entries already listed, in no set order.
row,Sequence,binding signal
4,CCCACACCCTTCTTTTGTCGCGCTGATCCCCAGACGCCGGCGGAGTCACCTAGTGCAG,12900 fluorescence intensity (a.u.)
7,GTTGGGTCTTGGCTTTCTCCCCTCTCTCTCTCCCTCTTGTCGGAGTCACCTAGTGCAG,8580 fluorescence intensity (a.u.)

# Additional entries:

row,Sequence,binding signal
1,CGCCATTAGCCCATTATTCATGTGAATACTTCTATTCACACGGAGTCACCTAGTGCAG,8760 fluorescence intensity (a.u.)
2,CGATCGATTTCTTTGGGATTCTTGAGCTCATCCATCCATGCGGAGTCACCTAGTGCAG,8590 fluorescence intensity (a.u.)
3,AGCAGCTCTCACGTTTCACTGTTCGCCTCTGCCATTCTCCCGGAGTCACCTAGTGCAG,9600 fluorescence intensity (a.u.)
4,AAGCATATACTTACATCTTGGGAGGACCAAATTATAACAGCGGAGTCACCTAGTGCAG,8080 fluorescence intensity (a.u.)
5,ATATATTGTTTCCTTTTTTCTTTTCTTTTTTTGGTTTTAACGGAGTCACCTAGTGCAG,10300 fluorescence intensity (a.u.)
6,GTTCCGTTCGTTCTCCCACGGCCACGGCCTCACCTTTACCCGGAGTCACCTAGTGCAG,8270 fluorescence intensity (a.u.)
7,TTTCAGGTACGATGTTTCTCCAGTTCTAGTATATTCCTTACGGAGTCACCTAGTGCAG,8880 fluorescence intensity (a.u.)
8,ATCCCGCGCCTCCTCGCTTCTCCTCCACACCCACGAATCCCGGAGTCACCTAGTGCAG,9570 fluorescence intensity (a.u.)
9,AGCCTATCGTATTCCGCGCGCACGCTTCCCAAACTACTAACGGAGTCACCTAGTGCAG,11600 fluorescence intensity (a.u.)
10,GTCCAATCCCGCTAGCTCCATCGCCTCCAGTTTAATCATCCGGAGTCACCTAGTGCAG,9010 fluorescence intensity (a.u.)
11,GACCAGCGACATCAGCGTGCGCGCGGGGACAGGGTTGGGGCGGAGTCACCTAGTGCAG,8910 fluorescence intensity (a.u.)
12,GGCGTTATATCTGGTTTTGTGGCTGAGGGAGGTAATTTAGCGGAGTCACCTAGTGCAG,11700 fluorescence intensity (a.u.)
13,TTCCCATTCTCTTGCTCACTATATATGCCTGTCAATTTTTCGGAGTCACCTAGTGCAG,9140 fluorescence intensity (a.u.)
14,TTTTGTTCAGTTATTCTTCCTCGTGAGGTGATGTCCTTTTCGGAGTCACCTAGTGCAG,8900 fluorescence intensity (a.u.)
15,AGCCATTACCCAAACCCGCGCTCCGCTCGCTCTCCACCGCCGGAGTCACCTAGTGCAG,8940 fluorescence intensity (a.u.)
16,TGGCATGTTTCTCCTTTACGCGTTTTAAGCTTTCCATCGACGGAGTCACCTAGTGCAG,12900 fluorescence intensity (a.u.)
17,AGCAAGTCATCCACATCGTTGCTCATACTTGTTGTTCACGCGGAGTCACCTAGTGCAG,8410 fluorescence intensity (a.u.)
18,CACTGTCATCCACTCGACCTGCCACGACACCCGCCACCGCCGGAGTCACCTAGTGCAG,8690 fluorescence intensity (a.u.)
19,GAAATCACACCTCGTCGCAGCCAAGATCTCCTCCAGTCCACGGAGTCACCTAGTGCAG,9670 fluorescence intensity (a.u.)
20,TCGGATGGTTGTCAGGTTGGTTGAAGCTAGTTTCTAATTACGGAGTCACCTAGTGCAG,11300 fluorescence intensity (a.u.)
21,CTGCTGCAGTTGAGCTGTACTGTTTTGGTGGGTTGGTTTTCGGAGTCACCTAGTGCAG,13900 fluorescence intensity (a.u.)
